Literature values, collected in patent publication US7572803B2 (The Christus Stehlin Foundation for Cancer Research, priority 2007, dated 2009).
At least one compound was matched to its structure with a doubt left.

Conditions: cited from earlier work

SMILES: CC[C@@](O)(C(=O)[O-])c1cc2n(c(=O)c1CO)Cc1cc3ccccc3nc1-2.[Na+] [sodium carboxylate salt]
- potency relative to native camptothecin with the closed lactone ring intact: 10%
